Values of other authors as cited in patent US7083779B2 (Council of Scientific and Industrial Research, priority 2003, dated 2006).
Some of these results come from one statement about several compounds together.

Test system: P. falciparum
Conditions: in vitro; one range stated for four limonoids; cited from earlier work

## CC(=O)O[C@@H]1C[C@H]2C(C)(C)C(=O)C=C[C@]2(C)[C@H]2CC[C@@]3(C)[C@H](c4ccoc4)OC(=O)[C@H]4O[C@]43[C@@]21C [gedunin]
  LC50 against P. falciparum: 0.72 to 1.74 µg/mL
